# In PubChem BioAssay AID743255 (National Center for Advancing Translational Sciences (NCATS), 2014):
# Chains of the proteins cited; added tags and fusions are not shown. Lines headed by an entry give the natural chain unless they say otherwise; changes in a name come on top.
# UniProt O94782: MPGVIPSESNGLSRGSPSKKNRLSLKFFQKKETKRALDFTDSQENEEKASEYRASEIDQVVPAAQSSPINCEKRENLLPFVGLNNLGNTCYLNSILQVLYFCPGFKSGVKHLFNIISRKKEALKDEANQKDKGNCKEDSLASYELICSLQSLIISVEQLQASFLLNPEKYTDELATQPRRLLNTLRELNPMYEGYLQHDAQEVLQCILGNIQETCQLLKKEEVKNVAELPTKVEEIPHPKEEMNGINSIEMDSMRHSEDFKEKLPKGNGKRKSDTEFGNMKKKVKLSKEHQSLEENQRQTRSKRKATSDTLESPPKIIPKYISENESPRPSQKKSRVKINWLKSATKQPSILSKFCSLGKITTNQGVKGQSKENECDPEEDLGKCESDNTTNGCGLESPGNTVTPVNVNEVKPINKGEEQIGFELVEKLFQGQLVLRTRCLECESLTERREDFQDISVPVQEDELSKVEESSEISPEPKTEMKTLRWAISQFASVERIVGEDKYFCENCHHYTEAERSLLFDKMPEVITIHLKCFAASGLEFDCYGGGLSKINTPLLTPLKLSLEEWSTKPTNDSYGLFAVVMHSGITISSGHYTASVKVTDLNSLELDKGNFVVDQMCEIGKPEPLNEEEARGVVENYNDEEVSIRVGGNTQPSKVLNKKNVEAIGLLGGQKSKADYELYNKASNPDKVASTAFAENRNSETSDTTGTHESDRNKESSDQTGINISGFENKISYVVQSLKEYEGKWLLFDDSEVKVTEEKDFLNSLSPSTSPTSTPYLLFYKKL
# Screen size: about 390,000 compounds; about 910 (0.23%) were called active. This list was built around the results that the source calls inconclusive (neither active nor inactive); the mix of calls is not that of the screen. Calls follow the shape of the dose curve; as a rule, active = well fitted inhibition curve with a large enough effect; inconclusive = small, poorly fitted or top-dose-only effect; inactive = no such curve, though single readings can be large or run the other way. Potencies of inconclusive entries are doubtful fits and often do not repeat.
# Target: Ubiquitin carboxyl-terminal hydrolase 1 (Homo sapiens) (UniProt O94782)
# Assay: Inhibitors of USP1/UAF1: Primary Screen; also: nearly all actives have a fitted effect of over 60% in size
# Settings: recombinant USP1/UAF1, Ub-Rhodamine cleavage fluorescence; series mostly up to 57.1 µM
# Summary of the method: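 High-throughput fluorogenic screen: 1nM USP1/UAF1 complex, Ub-Rho substrate 150nM final, 50mM HEPES pH 7.8 with 0.5mM EDTA, 0.1 mg/ml BSA, 1mM TCEP and 0.01% Tween-20.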
# Potency is read from the fitted curve at half-maximal effect.
row,Structure (SMILES),Potency
1,COc1ccc(-c2nc(C#N)c(N3CCCCCC3)o2)cc1,inactive
2,Cc1noc(/C=C/c2ccc(-c3ccccc3Cl)o2)c1[N+](=O)[O-],"inconclusive: 63.1 µM [inhibitor, partial curve, poor fit]"
3,CCCc1nc2nc(C)c(NS(=O)(=O)c3ccc(F)cc3)c(=O)n2[nH]1,"inconclusive: 3.55 µM [inhibitor, partial curve]"
4,O=C(Nc1cccc(-c2cnc3ccccc3n2)c1)c1ccncc1,"inconclusive: 8.91 µM [inhibitor, partial curve, poor fit]"
5,CCOC(=O)c1c(CN2CCN(c3ccccc3)CC2)oc2ccc(O)cc12,"inconclusive: 39.8 µM [inhibitor, partial curve]"
6,NS(=O)(=O)c1ccc(CCNC(=O)CSc2ccc([N+](=O)[O-])cc2)cc1,"inconclusive: 2.82 µM [inhibitor, full curve, poor fit]"
7,CCOC(=O)c1c(C)[nH]c(CCC(=O)Nc2c(Cl)cc(OC)cc2OC)c1C,"inconclusive: 0.708 µM [inhibitor, full curve, poor fit]"
8,CN(C)c1ccc(/C=C/c2ccc3ccccc3n2)cc1,"inconclusive: 17.8 µM [inhibitor, partial curve]"
9,O=C(CSc1nncn2c1cc1occc12)Nc1ccccc1C(F)(F)F,"inconclusive: 15.8 µM [inhibitor, partial curve]"
10,CCOC(=O)C1CCCN(S(=O)(=O)c2ccc3c(c2)CCN3C(=O)CC)C1 (configuration not stated),"inconclusive: 6.31 µM [inhibitor, full curve, poor fit]"
11,CCOc1c(S(=O)(=O)N2CCCC2)ccc(Cl)c1Cl,"inconclusive: 39.8 µM [inhibitor, partial curve, poor fit]"
12,CC1=NOC(=O)/C1=C\c1ccc(-c2ccc(Br)cc2)o1,"inconclusive: 17.8 µM [inhibitor, partial curve]"
13,CCN1CCN(CCCNc2ncnc3nc[nH]c23)CC1,"inconclusive: 0.398 µM [inhibitor, full curve, poor fit]"
14,CCN(CC)CC(=O)n1c2c(c3ccccc31)CCCC2,inactive
15,Cc1ccc(NC(=O)[C@H](NC(=O)[C@@H]2Cc3ccccc3CN2)c2ccccc2)c(C)c1,"inconclusive: 10 µM [inhibitor, full curve, poor fit]"
16,COC(=O)c1cccc(Nc2c(-c3ccc(OC)cc3)nc3nc[nH]n23)c1,"inconclusive: 39.8 µM [inhibitor, single point]"
17,CC(=O)c1cccc(NC(=O)Oc2ccccc2)c1,"inconclusive: 0.794 µM [inhibitor, full curve]"
18,COc1ccc(Cl)cc1NC(=O)CSC1=Nc2ccccc2C2=NC(CC(=O)NC3CCCCC3)C(=O)N12 (configuration not stated),inactive
19,CC(=O)Nc1ccc(C(=O)O)cc1,"inconclusive: 200 µM [inhibitor, partial curve, poor fit]"
20,Cc1ccc(Nc2c(-c3ccsc3)nc3cccc(C)n23)cc1,"inconclusive: 8.91 µM [inhibitor, partial curve, poor fit]"
21,Cc1ccc(C2C3=C(NCCN=C3c3ccccc3)C(=O)N2c2ccccc2)cc1 (configuration not stated),inactive

row,Structure (SMILES),Potency
1,OC(CNCCc1ccc(Cl)cc1Cl)COc1ccccc1 (configuration not stated),"inconclusive: 44.7 µM [inhibitor, partial curve, poor fit]"
2,COc1ccc(CNC(=O)CNC(C)c2ccc(F)cc2)cc1 (configuration not stated),inactive
3,O=C(c1ccco1)N(Cc1cccc([N+](=O)[O-])c1)c1ccc(Br)cc1,inactive
4,O=C(c1cc(-c2ccccc2)n[nH]1)N1CCN(S(=O)(=O)c2ccccc2)CC1,"inconclusive: 35.5 µM [inhibitor, partial curve]"
5,Cn1c(=O)c2cc3ccccc3nc2n(C)c1=O,"inconclusive: 31.6 µM [inhibitor, single point]"
6,CCOC(=O)C1CCCCN1C(=O)c1cc2ccc(OC)cc2c2cc(OC)c(OC)cc12 (configuration not stated),"inconclusive: 44.7 µM [inhibitor, partial curve, poor fit]"
7,Cc1cc(N/N=C/c2ccccc2F)nc(NCc2ccccc2)n1,inactive
8,COc1ccc(N2C(=O)C3CCCN3C2c2ccccc2Cl)cc1 (configuration not stated),"inconclusive: 0.251 µM [inhibitor, full curve, poor fit]"
9,CC(=O)N1CCc2cc(CNC(=O)Nc3cc(Cl)ccc3C)ccc21,"inconclusive: 0.631 µM [inhibitor, full curve, poor fit]"
10,CCc1ccc(CNC(=O)C2CCN(c3nc4ccccc4nc3C(F)(F)F)CC2)cc1,"inconclusive: 8.91 µM [inhibitor, full curve, poor fit]"
11,CCOC(=O)N1CCN(c2cc3[nH]c(=S)[nH]c3cc2F)CC1,inactive
12,CCCC[C@H](CN[C@@H](CNC)[C@H](C)CC)NCCC12CCC(CC1)C2,inactive
13,COc1ccccc1CNC(=O)CCC1N=C2c3ccccc3N=C(SCC(N)=O)N2C1=O (configuration not stated),"inconclusive: 224 µM [inhibitor, partial curve, poor fit]"
14,Cc1ccc(Nc2cc(C)c(O)c(C)c2)cc1,"inconclusive: 35.5 µM [inhibitor, partial curve]"
15,Cc1c(Cl)cccc1NC(=O)Cn1cc(C(=O)C2CCCCC2)c2ccccc21,"inconclusive: 39.8 µM [inhibitor, partial curve]"
16,COCCn1c(CCC(=O)Nc2ccc(C)c(Cl)c2)nc2cccnc21,inactive
17,CC(=O)n1c2ccccc2c2nc(NC(C)C)sc21,inactive
18,Cc1cc(NC(=O)CCC(=O)N(CC(=O)NC2CCCC2)c2ccc(C)c(F)c2)no1,"inconclusive: 28.2 µM [inhibitor, single point]"
19,Cc1cc(C)c(C(=O)N2CCCC(Nc3ccc(C)c(C)c3)C2)o1 (configuration not stated),"inconclusive: 39.8 µM [inhibitor, partial curve, poor fit]"
20,C[C@H](CO)N1C[C@H](C)[C@H](CN(C)C(=O)Nc2ccc3c(c2)OCO3)Oc2ncc(Br)cc2C1=O,"inconclusive: 0.282 µM [inhibitor, full curve]"
21,Cc1ccc(C2(c3ccc(C)cc3)NC(=O)N(CC(N)=O)C2=O)cc1,"inconclusive: 6.31 µM [inhibitor, single point]"

# 2 entries from above, reformatted:
row | Structure (SMILES) | Potency
8 | CN(C)c1ccc(/C=C/c2ccc3ccccc3n2)cc1 | inconclusive: 17.8 µM [inhibitor, partial curve]
18 | Cc1cc(NC(=O)CCC(=O)N(CC(=O)NC2CCCC2)c2ccc(C)c(F)c2)no1 | inconclusive: 28.2 µM [inhibitor, single point]
